{"source": "PubChem BioAssay AID1259308 (NCATS, 2017)", "assay": "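Genes whose loss raises luciferase production in HEK293 cells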 (primary screen)", "system": "human HEK293 embryonic kidney cells stably expressing firefly luciferase (HEK-CMV-Luc2-Hygro)", "knock-down reagent": "single siRNA against human genes, 0.8 pmol siRNA per well", "time to read-out": "72 h", "measured": "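Luciferase light (ONE-Glo) measured on one replicate plate set and viability (CellTiter-Glo) on the other, scaled to a negative control siRNA, with robust z-scores and luciferase per cell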", "direction": "total luciferase, z-score and total luciferase, % of control: higher = more reporter protein produced", "active means": "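An siRNA counts as active if its total luciferase robust z-score exceeds 3; genes with two or more such siRNAs out of three were retested with fresh siRNAs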", "meaning of the calls": "active = raised luciferase; inactive = no rise", "note": "The whole screen tested about 59,000 reagents; shown is a part drawn at random. About 1,510 of them (2.6%) were called active. 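Calls use total luciferase alone and ignore viability, so some active siRNAs may act by altering cell number.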 Unmarked entries are inactive. The numbers tell different reagents against one gene apart. Not all columns of the deposit are shown."}
{"gene knocked down": "USF3", "reagent no.": 1, "total luciferase, z-score": -0.685, "total luciferase, % of control": 68.3}
{"gene knocked down": "USF3", "reagent no.": 2, "total luciferase, z-score": 1.45, "total luciferase, % of control": 111}
{"gene knocked down": "USF3", "reagent no.": 3, "total luciferase, z-score": -0.76, "total luciferase, % of control": 66.8}
{"gene knocked down": "SOX7", "reagent no.": 1, "total luciferase, z-score": -0.767, "total luciferase, % of control": 66.6}
{"gene knocked down": "SOX7", "reagent no.": 2, "total luciferase, z-score": -1.38, "total luciferase, % of control": 54.4}
{"gene knocked down": "SOX7", "reagent no.": 3, "total luciferase, z-score": 1.52, "total luciferase, % of control": 112}
{"gene knocked down": "PHF2", "reagent no.": 1, "total luciferase, z-score": 1.18, "total luciferase, % of control": 105}
{"gene knocked down": "PHF2", "reagent no.": 2, "total luciferase, z-score": -0.556, "total luciferase, % of control": 70.8}
{"gene knocked down": "PHF2", "reagent no.": 3, "total luciferase, z-score": 0.15, "total luciferase, % of control": 84.9}
{"gene knocked down": "P4HB", "reagent no.": 1, "total luciferase, z-score": -1.01, "total luciferase, % of control": 61.9}
{"gene knocked down": "P4HB", "reagent no.": 2, "total luciferase, z-score": 0.828, "total luciferase, % of control": 98.4}
{"gene knocked down": "P4HB", "reagent no.": 3, "total luciferase, z-score": 1.54, "total luciferase, % of control": 113}

Part of the list above, set out differently:
{"gene knocked down":"P4HB","reagent no.":1,"total luciferase, z-score":-1.01,"total luciferase, % of control":61.9}
{"gene knocked down":"P4HB","reagent no.":2,"total luciferase, z-score":0.828,"total luciferase, % of control":98.4}
